# Results taken from the supplement of paper PMC3334620.
# Whole data set: some 33,000 sequences, median “E-score (-0.5 to 0.5)” near -8e-05, cut for the highest 2% near 0.23. Some of the results follow.
# Molecular target: T1, Nrg2 (UniProt P38082)
# T1 sequence: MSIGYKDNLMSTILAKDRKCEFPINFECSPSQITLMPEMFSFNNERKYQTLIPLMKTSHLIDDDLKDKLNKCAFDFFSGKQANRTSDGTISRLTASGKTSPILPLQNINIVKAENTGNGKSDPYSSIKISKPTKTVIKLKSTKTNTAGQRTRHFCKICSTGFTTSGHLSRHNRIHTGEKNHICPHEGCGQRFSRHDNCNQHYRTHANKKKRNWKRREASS
# Experiment: PBM E-score (8-mer binding enrichment) (E-score (-0.5 to 0.5)); higher = stronger / more preferred TF binding
# Details: protein concentration: 100 nM; construct: GST-full length
# In short: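 Using PURExpress in vitro transcription/translation, GST-tagged yeast transcription factors were made in full-length or DNA-binding-domain form. These were applied at about 100-200 nM to double-stranded universal all-10-mer Agilent arrays, and bound protein was detected with fluorescent anti-GST. Scans were normalised with masliner before the Universal PBM Analysis Suite assigned E-scores to ungapped eight-base words pooled with their reverse complements.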
row,Sequence,PBM E-score
1,GGGCATGA,-0.0401
2,GTCCCTCA,0.0343
3,CGGTCTCA,-0.194
4,GTCAAGCA,-0.238
5,AGTTAAAT,-0.224
6,ATTCAACC,0.0776
7,AGTCGCTG,-0.0881
8,TAAGTGGA,0.106
9,CCGGAAGC,0.0951
10,ATCTCCAA,0.178
11,ACAGTAAG,0.0264
12,AAGTGAGA,0.0612
13,CGCTCGTA,-0.0308
14,TAACTGCA,0.157
15,CTACAATA,0.00041
16,TAGCGGGA,-0.117
17,GCTACAAC,0.0838
18,TCGATGAA,-0.0359
19,ATCATCAA,0.0652
20,ATTCTCTC,0.057
21,GAGACGAA,-0.0342
22,CGAGACCC,0.263
23,CGTGTTCC,0.0481
24,CTTCGTTC,-0.00176
25,GCGTCTCC,0.00935

row,Sequence,PBM E-score
1,CTTTCTCA,0.192
2,GAAAAAAC,-0.0117
3,ATAATGAT,0.164
4,CTTGATGC,-0.0811
5,AGATGGAG,-0.0699
6,AGGTGCCA,0.0824
7,GAGTAGGC,-0.0622
8,CACCTGGC,-0.115
9,GCGGTAGC,-0.00411
10,ATACGGTA,0.0621
11,ATACCACA,0.0969
12,TCGGCAGA,-0.00029
13,ACCCAACC,-0.0481
14,AAGAACTT,0.0138
15,CCAATCTC,0.0106
16,ACCTAACC,0.0428
17,ATGGTATG,-0.172
18,CCAAATAA,0.107
19,GTATCTTA,0.197
20,AAATCAAG,0.148
21,ACATGACA,0.083
22,ACCGCTTC,-0.313
23,CCAGGTGA,-0.144
24,AGGGGGAC,-0.188
25,CCGATCAC,0.0723

row,Sequence,PBM E-score
1,CTAGGGCC,-0.0883
2,TAAACCGA,-0.0871
3,CGTGGGGA,0.121
4,AGCCCTGC,0.0274
5,GTTCGTCA,-0.066
6,AGGGCCAT,-0.0266
7,AACGGCTT,-0.127
8,GCAGGTGA,-0.0209
9,CTCATGTC,-0.016
10,AGCCATGG,-0.122
11,AGCCTTCC,-0.339
12,ATCGGTTC,-0.01
13,TACGGCTA,-0.104
14,CAGATGAG,0.117
15,GGGGCCAA,-0.0212
16,AGAGCTGG,-0.112
17,GGAGCCCA,-0.154
18,GACTGTAA,0.013
19,GCCTTTGA,-0.0625
20,ACTTAGGA,-0.17
21,GTAGTTAA,0.127
22,CCGCTAAG,-0.0186
23,CGGGCCCG,0.123
24,AGCTCCGA,0.022
25,CAGGCCAC,-0.141

row,Sequence,PBM E-score
1,AGTAGATG,0.0108
2,CAGACGCG,-0.0888
3,AGGGGTAC,0.142
4,CTATTCAA,0.0974
5,GTGACACA,0.117
6,GGGAGTAA,0.0514
7,ACCGGGAA,0.0186
8,AGCACGCG,-0.042
9,ACTCATTG,-0.0157
10,AGCTTGGC,-0.157
11,GTAGCCCA,-0.198
12,GCAGGGGA,-0.192
13,CGGAACGC,-0.0791
14,AGCCTGGC,-0.197
15,CCGGAGTC,-0.227
16,GCTATAGA,-0.153
17,CGGACCTC,-0.0835
18,CGCTTGGC,-0.191
19,CGAGACTA,0.00381
20,GATGCGGC,-0.094
21,AGTTTAAC,-0.0855
22,AGTAGACC,0.047
23,CTGCCTGC,-0.275
24,CACCCCTA,0.0524
25,CACCGCCG,-0.0483

row,Sequence,PBM E-score
1,CAATATGA,0.0437
2,ATACCCTA,0.119
3,CGTTGCAA,0.0314
4,AATCTCTA,0.228
5,GCTAAGAC,-0.0363
6,CCGTTGGC,-0.0235
7,ATAAACGC,-0.0764
8,CAAGCTCG,0.0858
9,CTGTATCC,0.0513
10,AAGCGGAG,-0.175
11,CGCACAGA,0.00739
12,CGCGACAG,0.11
13,CTCCGTAA,-0.214
14,CCCATCTC,0.0243
15,TGAACTAA,0.144
16,AATGTACC,-0.264
17,CCTACTCA,0.05
18,CGTTTCCC,-0.106
19,AAGTTATC,0.0623
20,CTCGAGAG,0.00914
21,GGATAACC,-0.141
22,AGAGGGCG,-0.146
23,ACAGTGAA,0.0367
24,GACCTGAC,0.0547
25,CCCAGTAG,-0.132

row,Sequence,PBM E-score
1,GGCATAAA,0.0686
2,AAAGACAG,0.147
3,GTAGGAGA,-0.205
4,GAGGCCCA,-0.181
5,AGCCCCTA,-0.103
6,GAGATCGC,-0.118
7,ACGGTGAG,-0.00711
8,CCATGGTA,0.117
9,CATCCTGA,0.0368
10,CCCCCAAA,-0.375
11,CCTCTGAG,-0.00848
12,TACCGCAA,0.0205
13,ACACGTTG,-0.151
14,ACATCCCC,0.141
15,AGAAACGA,0.159
16,ATGCCCCG,0.0227
17,CCTAAAGA,-0.255
18,GAGATTCA,0.033
19,TGGAAACA,-0.0315
20,ACGAACAC,-0.00267
21,AGTGGCTA,-0.0624
22,GTAATCGA,0.154
23,CAATGACG,-0.232
24,TATTATCA,0.0123
25,AGGCCTTA,-0.154

row,Sequence,PBM E-score
1,ATGTAAGC,0.176
2,TCTAATCA,0.139
3,CATGCTTA,-0.125
4,AAGCGTCT,-0.22
5,CTACGTAG,-0.103
6,GGATTTTA,-0.084
7,CACCGTAC,0.0768
8,AAATCCTG,0.0103
9,CGGAACTC,-0.045
10,CCAGCCGA,-0.127
11,ACTATCAA,0.0835
12,ACAAGCGG,0.208
13,ATCATGAC,0.197
14,ATGAGAAC,0.0898
15,GATGTCAC,0.119
16,ACCGTAAT,-0.039
17,AATAGACC,0.00257
18,AAGATCTT,-0.0257
19,CTCTGCAG,-0.0279
20,CTTTTTAA,-0.163
21,CGGCGTCA,-0.0514
22,CAGGACTA,-0.0199

# 6 entries from above in a different format.
row	Sequence	PBM E-score
12	ACAAGCGG	0.208
13	ATCATGAC	0.197
14	ATGAGAAC	0.0898
15	GATGTCAC	0.119
16	ACCGTAAT	-0.039
17	AATAGACC	0.00257
